Assay results published in PubChem BioAssay AID2551 (National Center for Advancing Translational Sciences (NCATS), 2010).
Where “and” joins values, the source holds several entries; their conditions need not be identical. Equal entries are not always repeated. In all, about 310,000 compounds went through this assay and about 17,000 (5.5%) were called active. This list was built around the results that the source calls inconclusive (neither active nor inactive); the mix of calls is not that of the screen. The call rests on the fitted dose curve; in most records, active means well fitted inhibition curve with a large enough effect; inconclusive means small, poorly fitted or top-dose-only effect, or effect the other way; inactive means no such curve, though single readings can be large or run the other way. A potency beside an inconclusive call is a rough fit, not a confirmed value.

By UniProt entry, the sequences of proteins in these tests, tags left out. Where a name states a change or a piece, a line headed by the entry shows the natural chain unless it says otherwise.
UniProt P51450: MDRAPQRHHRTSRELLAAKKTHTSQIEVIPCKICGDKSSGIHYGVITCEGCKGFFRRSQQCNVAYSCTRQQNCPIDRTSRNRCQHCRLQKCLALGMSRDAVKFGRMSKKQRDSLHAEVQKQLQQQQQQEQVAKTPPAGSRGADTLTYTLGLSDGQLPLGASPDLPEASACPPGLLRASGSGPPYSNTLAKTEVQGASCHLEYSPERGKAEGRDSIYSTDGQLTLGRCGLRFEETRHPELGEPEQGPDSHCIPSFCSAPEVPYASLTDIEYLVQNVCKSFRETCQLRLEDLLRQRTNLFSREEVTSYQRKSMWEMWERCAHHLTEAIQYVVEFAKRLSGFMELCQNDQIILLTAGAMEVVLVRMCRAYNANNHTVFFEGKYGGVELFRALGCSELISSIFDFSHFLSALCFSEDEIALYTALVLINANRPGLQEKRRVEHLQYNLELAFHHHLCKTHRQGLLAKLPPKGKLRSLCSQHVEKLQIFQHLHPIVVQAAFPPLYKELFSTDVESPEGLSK

These molecules were tested against Nuclear receptor ROR-gamma (Mus musculus) (UniProt P51450) (assay: qHTS for inhibitors of ROR gamma transcriptional activity). Settings: Drosophila S2 Gal4-RORgamma UAS-luciferase reporter, 20 h; activity change, negative = inhibition: at 53.6 µM (top of the series).
Procedure, shortened: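 Drosophila Schneider cells stably carrying a metallothionein-driven Gal4 DBD–ROR gamma fusion and a UAS-Photinus luciferase reporter were exposed to compound for 1 hr, then induced with copper sulfate (700 uM final) for 20 hr at ambient temperature before luminescence reading.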
Further: nearly all actives have a fitted effect of over 60% in size.
On the % scale 0 is the no-effect control and ±100 the full control effect; potency means the concentration at half of the fitted maximal effect.

SMILES | Potency | activity change, negative = inhibition
Cn1c(O)c(C(=Nc2ccccc2)SCc2ccccc2Cl)c(=O)n(C)c1=O | inconclusive: 22.4 µM [activator, single point] | –
COc1ccc(OCCOc2cccc(C=C3C(=O)NC(=O)NC3=O)c2)cc1 | inconclusive: 14.1 µM [inhibitor, single point] | –
CCCCCSc1cc(O)c(C(CNC)C(C)C)cc1OC (configuration not stated) | inconclusive: 35.5 µM [inhibitor, single point] | –
Cc1cc(C=C2C(=O)NC(=S)NC2=O)c(C)n1C1CCCC1 | inconclusive: 35.5 µM [inhibitor, single point] | –
COc1cc(/C=N/n2cnnc2)ccc1OC(=O)N(C)C | inconclusive: 12.6 µM [activator, single point] | –
O=C(Cl)c1ccccc1F | inactive | –
COc1cccc(CNc2ccc(S(N)(=O)=O)cc2)c1OCc1ccccc1F | inconclusive: 15.8 µM [activator, single point] | –
CC(C)C[C@H]1C(=O)N2CCC[C@@H]2[C@]2(O)O[C@](NC(=O)[C@H]3C=C4c5cccc6[nH]c(Br)c(c56)C[C@H]4N(C)C3)(C(C)C)C(=O)N12 | inconclusive: 7.08 µM [activator, partial curve] | –
COc1ccc(C2NCc3ccccc3-n3cccc32)cc1 (configuration not stated) | inactive | –
CC1OC(NCCc2ccccc2)C(O)C(O)C1O (configuration not stated) | inconclusive: 11.2 µM [inhibitor, partial curve] | –
O=C1NC(=O)C2(Cc3c(nc4ccccn4c3=O)N3CCCCCC32)C(=O)N1Cc1ccccc1 (configuration not stated) | inconclusive: 10 µM [activator, partial curve] | –
CC(Oc1cc2oc(=O)c3c(c2cc1Cl)CCCC3)C(=O)NCc1ccccn1 (configuration not stated) | inconclusive: 35.5 µM [activator, single point] | –
O=C1C=C2C=CC3C[C@@]2(O1)C1CCCCN31 (some centres not stated) | inconclusive: 14.1 µM [inhibitor, single point] | –
c1ccc(OP(Oc2ccccc2)Oc2ccccc2)cc1 | inactive | –
O=C(OCC(=O)c1ccc([N+](=O)[O-])cc1)/C(=C/c1ccc(Cl)cc1)NC(=O)c1ccccc1 | inactive | –
CCC(=NCc1ccco1)c1c(O)n(C2CCCCC2)c(=O)[nH]c1=O | inconclusive: 10 µM [activator, partial curve] | –
CCOc1ccc(N2C(=O)CC(=O)NC2=O)cc1 | inactive | –
Cc1nc2ccccc2c(=O)n1-c1cc([N+](=O)[O-])cc([N+](=O)[O-])c1 | active: 1.12 µM | –
Cc1cc(/C=C2\C(=O)NC(=S)N(C)C2=O)c(C)n1C1CCCCC1 | inconclusive: 12.6 µM [inhibitor, single point] | –
COc1cc(CNC(=O)CCCC/C=C/C(C)C)ccc1O | inconclusive: 35.5 µM [activator, single point] | –
Cc1ccc(N)c(N)c1 | inconclusive: 15.8 µM [inhibitor, single point] and inconclusive: 5.62 µM [inhibitor, full curve] | –
COC(=O)[C@@H]1C[C@@]2(O)[C@H](O)[C@H](O)[C@H](O)C[C@H]2N1Cc1cccnc1 | inactive | –
Cc1ccccc1C1=NCC(=O)N(CC(=O)NCc2ccco2)c2sc3c(c21)CCCC3 | inconclusive: 35.5 µM [inhibitor, single point] | –
CC(C)(C)P(=O)(c1ccncc1)N1CCCC1 (configuration not stated) | inactive | –

SMILES | Potency | activity change, negative = inhibition
COc1cc2c(cc1O)C[C@H]1NCCc3cc4c(c-2c31)OCO4 | active: 10 µM | –
O=[N+]([O-])c1c(Cl)cccc1-c1c[nH]cc1Cl | inconclusive: 31.6 µM [activator, single point] | –
CCCCCCC(C)(C)c1ccc([C@@H]2C[C@H](O)CC[C@@H]2CCCO)c(O)c1 | inconclusive: 35.5 µM [inhibitor, single point] | –
O=C(CCC(=O)N1CCOc2ccc(Cl)cc21)N1CCC2(CC1)OCCO2 | inactive | –
CSc1ncc(/C=C2/C(=O)NC(=O)N(C)C2=O)cn1 | inactive | –
CC(=O)OC1CC2C(C)(C)C(O)C=C[C@@]2(C)C2CC[C@]3(C)C(=CC(=O)OC3c3ccoc3)[C@]12C (some centres not stated) | inactive | –
COC(=O)C1=Nc2ccccc2/C1=C\c1c(O)n(-c2cc(OC)ccc2OC)c(=O)[nH]c1=O | inconclusive: 14.1 µM [activator, single point] | –
O=C(CSc1nnnn1-c1ccccc1)Nc1ccc(N2CCOCC2)c(Cl)c1 | inconclusive: 17.8 µM [activator, single point] | –
O=C(CN1CCOCC1)c1cccc2ccccc12 | inactive | –
CCC(=Nc1ccc(OC)cc1OC)c1c(O)n(C2CCCCC2)c(=O)[nH]c1=O | inconclusive: 35.5 µM [inhibitor, single point] | –
N=C(N)c1c(O)n(C2CCCCC2)c(=O)n(C2CCCCC2)c1=O | inconclusive: 35.5 µM [inhibitor, single point] | –
O=C(COC(=O)c1cccc(O)c1)Nc1ccc(Cl)cc1C(=O)c1ccccc1 | inconclusive: 6.31 µM [activator, full curve] | –
O=C(COc1ccccc1F)N1CCN(CCN2C(=O)c3cccc4cccc(c34)C2=O)CC1 | inconclusive: 35.5 µM [inhibitor, single point] | –
CCCCCCC1CC(C)(C(=O)CNc2nncs2)OC1=O (configuration not stated) | inconclusive: 11.2 µM [activator, single point] | –
O=C(c1ccc2c(=O)n(Cc3ccc4c(c3)OCO4)c(=S)[nH]c2c1)N1CCC2(CC1)OCCO2 | active: 12.6 µM | –
Cc1ccc(-n2c(CNCc3ccc(F)cc3)nc3ccccc3c2=O)cc1 | inconclusive: 3.55 µM [activator, single point] | –
CCOC(=O)c1cc(CC)sc1/N=C/c1c(O)[nH]c(=S)[nH]c1=O | active: 17.8 µM | –
O=c1[nH]c(=O)n(Cc2ccccc2Cl)c(O)c1/C=C1/C=CC=N1 | inactive | –
O=[N+]([O-])c1ccc(N2CCCC(C(F)(F)F)C2)c2ccncc12 (configuration not stated) | inconclusive: 22.4 µM [inhibitor, single point] | –
O=[N+]([O-])C(Br)Br | active: 12.6 µM | –
COc1ccc(OC)c(CN2CCN(C(=O)COc3cccc(C)c3)CC2)c1 | inactive | –
Cl/C=C\Cl | inactive | –
CCCCCCn1c(=O)c(C(=O)Nc2ncccc2O)c(O)c2ccccc21 | inconclusive: 12.6 µM [inhibitor, partial curve] | –
Cc1ccsc1/C=C1\C(=O)NC(=S)N(C)C1=O | inconclusive: 22.4 µM [inhibitor, single point] | –

SMILES | Potency | activity change, negative = inhibition
Nc1c(C(=O)NCc2ccco2)c2nc3ccccc3nc2n1CCN1CCCCC1 | inconclusive: 15.8 µM [inhibitor, single point] | –
COc1ccc(NP(=O)(Oc2ccc(Cl)cc2)Oc2ccc(Cl)cc2)cc1OC | inconclusive: 35.5 µM [activator, single point] | –
Cc1ccc(S(=O)(=O)CC(C)(O)C(=O)Nc2cccc(C(F)(F)F)c2)cc1 (configuration not stated) | inactive | –
c1ccc(CCNCc2cccnc2)cc1 | inconclusive: 1.26 µM [inhibitor, partial curve] | –
O=[N+]([O-])c1ccc(F)c([N+](=O)[O-])c1 | inconclusive: 22.4 µM [activator, single point] | –
COC(=O)C1=CO[C@@H](C)[C@@H]2CN3CCc4c([nH]c5cc(OC)ccc45)[C@@H]3C[C@H]12 | inactive | –
Cc1nn(CCc2n[nH]c(=S)n2-c2cccc(Cl)c2)c(C)c1[N+](=O)[O-] | inconclusive: 12.6 µM [inhibitor, single point] | –
S=C(Nc1ccccc1)N1CCN(c2ccccn2)CC1 | inconclusive: 35.5 µM [inhibitor, single point] | –
N#CC(C#N)=NNc1ccc(S(=O)(=O)N2CCCC2)cc1 | inconclusive: 8.91 µM [inhibitor, single point] | –
CCCCCSc1cc(OC)c(CCN)cc1OC | active: 7.08 µM | –
CC(N=Cc1c(O)n(C2CC2)c(=S)[nH]c1=O)c1ccccc1 (configuration not stated) | inconclusive: 35.5 µM [inhibitor, single point] | –
CC(=O)Nc1ccccc1C(=O)OCC(=O)c1cccc2ccccc12 | inconclusive: 35.5 µM [activator, single point] | –
O=C(N/N=C/c1ccccc1OC(=O)N1CCOCC1)c1cccs1 | active: 2.51 µM | –
CCn1c(NN=O)nc2ccccc21 | active: 0.501 µM | –
Cc1ccc(-c2nn(Cc3ccccc3)cc2C=O)cc1C | – | inactive: -12.2% [at 10 µM]
CCCCC/C=C\C/C=C\C/C=C\C/C=C\CCCC(=O)NCCCl | inactive | –
Fc1ccc(C(OCCN2CCN(C/C=C\c3ccccc3)CC2)c2ccc(F)cc2)cc1 | active: 14.1 µM | –
CCC(C)(C)NC(=O)Cn1c(=O)oc2cc(S(=O)(=O)N3CC(C)CC(C)C3)ccc21 (configuration not stated) | inconclusive: 35.5 µM [inhibitor, single point] | –
CC1(C)C(=O)C=C[C@@]2(C)C1CC(O)[C@]1(C)C2CC[C@@]2(C)C(c3ccoc3)OC(=O)C3O[C@]312 (some centres not stated) | inconclusive: 25.1 µM [inhibitor, single point] | –
CCOc1ccccc1Oc1coc2cc(OC(=O)c3ccco3)ccc2c1=O | inconclusive: 35.5 µM [activator, single point] | –
O=C(CN1CC=C(c2ccccc2)CC1)NC(=O)NCc1ccccc1 | inactive | –
O=C(N/N=C/c1cc(Br)c(Br)s1)c1ccncc1 | active: 0.562 µM | –
COc1cc2c(cc1OC)-c1c3c(cc4c1[C@@H](C2)N(C)CC4)OCO3 | inconclusive: 35.5 µM [inhibitor, single point] | –
C=CCn1c(C)c(C=C2C(=O)NC(=O)NC2=O)c2ccccc21 | inactive | –

Four neighbouring entries out of the list so far, for reference:
SMILES | Potency | activity change, negative = inhibition
Nc1c(C(=O)NCc2ccco2)c2nc3ccccc3nc2n1CCN1CCCCC1 | inconclusive: 15.8 µM [inhibitor, single point] | –
COc1ccc(NP(=O)(Oc2ccc(Cl)cc2)Oc2ccc(Cl)cc2)cc1OC | inconclusive: 35.5 µM [activator, single point] | –
Cc1ccc(S(=O)(=O)CC(C)(O)C(=O)Nc2cccc(C(F)(F)F)c2)cc1 (configuration not stated) | inactive | –
c1ccc(CCNCc2cccnc2)cc1 | inconclusive: 1.26 µM [inhibitor, partial curve] | –
